Read-outs that look alike come from different tables or passages of the source. Results are given in words; binding and its absence hold for the method and conditions named. Binding can be weak; no strength is given.
Tests used:
Assay in all cases: cross-linking
[1] = target: glutamate dehydrogenase (GDH, from bovine liver) (bovine) (UniProt P00366)
[2] = target: T1, L-malate dehydrogenase (MDH, from pig heart mitochondrial) (pig) (UniProt P00346)
T1 sequence: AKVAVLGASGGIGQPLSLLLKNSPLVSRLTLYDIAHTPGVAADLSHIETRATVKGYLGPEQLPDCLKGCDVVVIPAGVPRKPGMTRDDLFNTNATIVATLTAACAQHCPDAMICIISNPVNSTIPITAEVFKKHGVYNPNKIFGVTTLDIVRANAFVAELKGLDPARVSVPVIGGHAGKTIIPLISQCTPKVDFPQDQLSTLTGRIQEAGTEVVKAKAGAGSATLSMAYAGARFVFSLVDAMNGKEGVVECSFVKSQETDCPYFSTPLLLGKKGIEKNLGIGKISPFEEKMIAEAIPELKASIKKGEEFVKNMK

Chains of the proteins cited; added tags and fusions are not shown. Lines headed by an entry give the natural chain unless they say otherwise; changes in a name come on top. Residues count along the entry.
UniProt P00366, residues 58-558: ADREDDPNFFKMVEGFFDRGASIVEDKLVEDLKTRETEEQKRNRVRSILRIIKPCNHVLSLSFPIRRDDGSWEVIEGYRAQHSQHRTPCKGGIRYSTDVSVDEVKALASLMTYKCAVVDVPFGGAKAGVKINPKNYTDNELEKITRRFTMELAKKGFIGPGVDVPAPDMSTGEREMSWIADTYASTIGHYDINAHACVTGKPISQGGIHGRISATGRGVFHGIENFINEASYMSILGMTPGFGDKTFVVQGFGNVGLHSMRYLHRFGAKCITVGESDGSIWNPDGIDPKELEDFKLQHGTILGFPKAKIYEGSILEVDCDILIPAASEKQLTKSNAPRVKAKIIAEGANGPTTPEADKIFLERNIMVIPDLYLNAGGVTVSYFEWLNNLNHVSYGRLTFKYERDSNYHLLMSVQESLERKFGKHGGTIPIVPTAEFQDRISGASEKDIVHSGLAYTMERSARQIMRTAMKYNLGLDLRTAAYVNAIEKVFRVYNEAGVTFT
UniProt P15992: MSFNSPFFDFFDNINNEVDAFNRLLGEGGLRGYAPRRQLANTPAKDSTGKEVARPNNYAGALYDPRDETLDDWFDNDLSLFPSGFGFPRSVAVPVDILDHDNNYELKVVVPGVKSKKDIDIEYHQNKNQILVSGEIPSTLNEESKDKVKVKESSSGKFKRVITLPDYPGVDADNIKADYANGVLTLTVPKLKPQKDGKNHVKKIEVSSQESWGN
UniProt P25491: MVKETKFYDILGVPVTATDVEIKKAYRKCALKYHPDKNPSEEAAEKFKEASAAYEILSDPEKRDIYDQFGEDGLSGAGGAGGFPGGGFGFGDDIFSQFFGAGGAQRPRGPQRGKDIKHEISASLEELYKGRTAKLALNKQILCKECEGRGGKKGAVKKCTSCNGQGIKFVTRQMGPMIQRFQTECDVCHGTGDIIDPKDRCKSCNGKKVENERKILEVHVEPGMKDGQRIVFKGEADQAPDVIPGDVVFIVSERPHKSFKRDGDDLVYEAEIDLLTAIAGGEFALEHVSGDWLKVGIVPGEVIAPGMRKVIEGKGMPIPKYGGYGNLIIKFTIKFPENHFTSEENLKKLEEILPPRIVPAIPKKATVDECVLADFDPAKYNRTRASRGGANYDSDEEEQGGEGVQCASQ

[3] = target: T1, L-malate dehydrogenase (MDH, from pig heart mitochondrial) (pig); remark: listed apart in the source
[4] = target: Hsp26 (yeast (Saccharomyces cerevisiae)) (UniProt P15992)

| Substance | binding [1] | binding [2] | binding [3] | binding [4] |
| --- | --- | --- | --- | --- |
| Hsp26 (from UniProt P15992) | binds | binds | binds |  |
| Ydj1 (Hsp40) (from UniProt P25491 1-409) |  |  |  | binds |
